Experimental findings from the supplement of paper PMC10849652 are described below.

Amino acid sequences for entries named in this document (tags omitted). A change or cut given only in a name is not applied to a line headed by its entry.
UniProt Q9BW60: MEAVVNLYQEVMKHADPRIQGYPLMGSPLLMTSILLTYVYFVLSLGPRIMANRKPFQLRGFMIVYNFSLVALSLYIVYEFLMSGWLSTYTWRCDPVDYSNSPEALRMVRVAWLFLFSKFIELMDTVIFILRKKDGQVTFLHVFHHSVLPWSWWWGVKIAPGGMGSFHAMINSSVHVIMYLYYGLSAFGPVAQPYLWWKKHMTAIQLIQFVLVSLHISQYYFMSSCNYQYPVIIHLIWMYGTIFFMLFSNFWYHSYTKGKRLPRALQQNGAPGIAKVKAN
UniProt Q14232, whole entry, looked up: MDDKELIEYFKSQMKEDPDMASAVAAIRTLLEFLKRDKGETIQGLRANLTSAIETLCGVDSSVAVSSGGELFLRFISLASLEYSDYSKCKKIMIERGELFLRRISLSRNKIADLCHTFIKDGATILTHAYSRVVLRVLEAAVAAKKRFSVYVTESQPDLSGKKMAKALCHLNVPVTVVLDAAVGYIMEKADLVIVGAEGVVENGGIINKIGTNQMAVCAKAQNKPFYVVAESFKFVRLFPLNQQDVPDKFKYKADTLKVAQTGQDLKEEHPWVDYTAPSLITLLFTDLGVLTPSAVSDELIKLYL
UniProt Q5NDL2: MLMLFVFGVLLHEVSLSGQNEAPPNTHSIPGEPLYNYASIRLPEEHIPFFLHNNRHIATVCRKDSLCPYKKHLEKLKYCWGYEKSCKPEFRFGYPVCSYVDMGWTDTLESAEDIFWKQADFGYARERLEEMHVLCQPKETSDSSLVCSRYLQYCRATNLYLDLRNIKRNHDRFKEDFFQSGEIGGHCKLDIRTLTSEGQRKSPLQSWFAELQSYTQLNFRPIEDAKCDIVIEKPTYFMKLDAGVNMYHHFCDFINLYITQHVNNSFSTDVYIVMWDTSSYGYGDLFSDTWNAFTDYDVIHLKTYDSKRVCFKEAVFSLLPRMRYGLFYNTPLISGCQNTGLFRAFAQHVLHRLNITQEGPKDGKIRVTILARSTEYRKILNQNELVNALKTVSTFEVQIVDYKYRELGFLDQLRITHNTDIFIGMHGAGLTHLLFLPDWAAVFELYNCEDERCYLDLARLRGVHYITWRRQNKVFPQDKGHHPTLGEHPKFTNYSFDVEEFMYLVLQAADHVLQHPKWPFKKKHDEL
UniProt P41091, whole entry, looked up: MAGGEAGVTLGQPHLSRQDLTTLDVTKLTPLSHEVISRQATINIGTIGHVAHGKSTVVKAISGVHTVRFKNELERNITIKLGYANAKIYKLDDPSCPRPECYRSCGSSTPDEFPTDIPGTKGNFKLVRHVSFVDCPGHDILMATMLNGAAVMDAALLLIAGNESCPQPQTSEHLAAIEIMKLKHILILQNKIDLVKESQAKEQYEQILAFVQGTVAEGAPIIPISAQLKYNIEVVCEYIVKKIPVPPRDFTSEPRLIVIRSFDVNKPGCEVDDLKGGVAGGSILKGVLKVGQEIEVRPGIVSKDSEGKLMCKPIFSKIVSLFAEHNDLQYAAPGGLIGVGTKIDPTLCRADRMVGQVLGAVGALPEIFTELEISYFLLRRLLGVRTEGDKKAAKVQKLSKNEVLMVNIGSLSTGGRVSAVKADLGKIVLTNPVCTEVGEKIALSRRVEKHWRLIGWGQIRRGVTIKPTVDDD
UniProt Q15369, whole entry, looked up: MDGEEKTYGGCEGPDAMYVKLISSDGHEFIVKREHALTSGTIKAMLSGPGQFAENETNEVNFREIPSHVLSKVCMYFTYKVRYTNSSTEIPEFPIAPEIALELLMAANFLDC
UniProt O75071: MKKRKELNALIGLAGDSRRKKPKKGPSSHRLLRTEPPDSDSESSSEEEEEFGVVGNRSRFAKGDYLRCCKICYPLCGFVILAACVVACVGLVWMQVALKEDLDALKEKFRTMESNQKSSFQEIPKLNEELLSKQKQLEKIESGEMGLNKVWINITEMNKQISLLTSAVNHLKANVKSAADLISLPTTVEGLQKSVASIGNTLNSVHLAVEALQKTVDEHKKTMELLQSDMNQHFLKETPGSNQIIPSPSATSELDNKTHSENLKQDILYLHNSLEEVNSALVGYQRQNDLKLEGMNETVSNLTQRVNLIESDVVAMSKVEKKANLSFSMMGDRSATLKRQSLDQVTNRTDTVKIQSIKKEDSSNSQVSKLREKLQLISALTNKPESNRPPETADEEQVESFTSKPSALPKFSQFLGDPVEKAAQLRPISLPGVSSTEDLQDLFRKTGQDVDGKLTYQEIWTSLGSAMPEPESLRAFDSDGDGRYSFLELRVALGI
UniProt Q7Z2Z2: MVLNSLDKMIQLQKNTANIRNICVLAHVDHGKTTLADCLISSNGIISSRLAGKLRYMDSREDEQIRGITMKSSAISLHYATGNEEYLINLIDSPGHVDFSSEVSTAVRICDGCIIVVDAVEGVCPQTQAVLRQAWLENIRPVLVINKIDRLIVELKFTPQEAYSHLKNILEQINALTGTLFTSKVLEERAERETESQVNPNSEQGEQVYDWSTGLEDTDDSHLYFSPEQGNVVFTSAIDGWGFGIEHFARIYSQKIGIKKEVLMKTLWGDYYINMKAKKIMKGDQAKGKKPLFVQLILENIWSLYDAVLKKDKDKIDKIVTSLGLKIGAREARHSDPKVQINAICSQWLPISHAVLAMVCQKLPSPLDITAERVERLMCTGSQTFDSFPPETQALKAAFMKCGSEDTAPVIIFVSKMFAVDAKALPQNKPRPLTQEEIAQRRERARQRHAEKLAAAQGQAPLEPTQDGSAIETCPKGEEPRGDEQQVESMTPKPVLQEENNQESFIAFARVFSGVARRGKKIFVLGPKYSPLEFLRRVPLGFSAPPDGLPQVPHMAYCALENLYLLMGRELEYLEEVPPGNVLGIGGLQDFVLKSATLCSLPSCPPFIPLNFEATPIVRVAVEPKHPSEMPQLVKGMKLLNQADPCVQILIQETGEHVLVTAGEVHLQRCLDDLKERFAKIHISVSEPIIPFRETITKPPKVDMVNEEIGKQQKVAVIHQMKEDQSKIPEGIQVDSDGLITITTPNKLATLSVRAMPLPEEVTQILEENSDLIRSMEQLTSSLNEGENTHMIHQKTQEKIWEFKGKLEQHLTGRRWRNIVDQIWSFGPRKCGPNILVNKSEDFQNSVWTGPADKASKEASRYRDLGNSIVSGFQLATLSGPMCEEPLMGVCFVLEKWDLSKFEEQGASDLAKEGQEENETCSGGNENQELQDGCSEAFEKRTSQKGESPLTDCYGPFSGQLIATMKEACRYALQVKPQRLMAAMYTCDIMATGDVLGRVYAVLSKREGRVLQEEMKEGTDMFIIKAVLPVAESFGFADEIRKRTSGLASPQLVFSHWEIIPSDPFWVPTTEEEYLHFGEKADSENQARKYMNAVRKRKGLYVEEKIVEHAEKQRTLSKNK
UniProt O95163: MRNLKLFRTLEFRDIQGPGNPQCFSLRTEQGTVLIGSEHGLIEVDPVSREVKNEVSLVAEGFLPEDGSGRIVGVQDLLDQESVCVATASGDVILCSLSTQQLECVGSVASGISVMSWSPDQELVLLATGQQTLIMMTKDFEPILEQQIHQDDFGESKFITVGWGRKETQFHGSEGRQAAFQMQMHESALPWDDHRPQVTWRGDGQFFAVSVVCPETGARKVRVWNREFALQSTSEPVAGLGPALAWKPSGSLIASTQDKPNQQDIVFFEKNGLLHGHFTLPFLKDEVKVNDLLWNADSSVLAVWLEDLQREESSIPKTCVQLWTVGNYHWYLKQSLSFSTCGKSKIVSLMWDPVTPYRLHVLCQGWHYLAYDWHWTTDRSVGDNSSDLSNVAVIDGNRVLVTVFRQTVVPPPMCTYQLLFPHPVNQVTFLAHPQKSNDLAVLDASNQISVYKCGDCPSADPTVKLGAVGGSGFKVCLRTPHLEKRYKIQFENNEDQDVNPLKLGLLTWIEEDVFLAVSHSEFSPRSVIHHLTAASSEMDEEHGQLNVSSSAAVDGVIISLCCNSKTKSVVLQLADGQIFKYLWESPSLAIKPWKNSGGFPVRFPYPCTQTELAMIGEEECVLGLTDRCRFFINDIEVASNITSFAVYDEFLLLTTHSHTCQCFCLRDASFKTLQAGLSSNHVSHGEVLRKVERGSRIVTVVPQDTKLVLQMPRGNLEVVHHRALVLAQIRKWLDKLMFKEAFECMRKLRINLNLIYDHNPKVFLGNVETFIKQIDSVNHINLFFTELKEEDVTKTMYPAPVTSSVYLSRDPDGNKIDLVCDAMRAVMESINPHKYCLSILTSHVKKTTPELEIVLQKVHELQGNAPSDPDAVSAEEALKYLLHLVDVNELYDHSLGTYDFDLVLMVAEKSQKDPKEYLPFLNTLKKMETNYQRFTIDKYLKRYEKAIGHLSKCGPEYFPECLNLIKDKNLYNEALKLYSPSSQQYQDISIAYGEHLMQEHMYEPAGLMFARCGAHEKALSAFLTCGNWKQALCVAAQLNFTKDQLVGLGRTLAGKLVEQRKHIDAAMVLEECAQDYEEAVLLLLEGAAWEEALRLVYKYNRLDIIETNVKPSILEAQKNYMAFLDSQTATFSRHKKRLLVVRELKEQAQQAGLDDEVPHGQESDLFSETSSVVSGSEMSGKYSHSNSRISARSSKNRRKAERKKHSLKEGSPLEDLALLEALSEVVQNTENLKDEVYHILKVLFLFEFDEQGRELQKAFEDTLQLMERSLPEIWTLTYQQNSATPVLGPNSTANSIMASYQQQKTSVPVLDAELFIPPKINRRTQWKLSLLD
UniProt Q04637, whole entry, looked up: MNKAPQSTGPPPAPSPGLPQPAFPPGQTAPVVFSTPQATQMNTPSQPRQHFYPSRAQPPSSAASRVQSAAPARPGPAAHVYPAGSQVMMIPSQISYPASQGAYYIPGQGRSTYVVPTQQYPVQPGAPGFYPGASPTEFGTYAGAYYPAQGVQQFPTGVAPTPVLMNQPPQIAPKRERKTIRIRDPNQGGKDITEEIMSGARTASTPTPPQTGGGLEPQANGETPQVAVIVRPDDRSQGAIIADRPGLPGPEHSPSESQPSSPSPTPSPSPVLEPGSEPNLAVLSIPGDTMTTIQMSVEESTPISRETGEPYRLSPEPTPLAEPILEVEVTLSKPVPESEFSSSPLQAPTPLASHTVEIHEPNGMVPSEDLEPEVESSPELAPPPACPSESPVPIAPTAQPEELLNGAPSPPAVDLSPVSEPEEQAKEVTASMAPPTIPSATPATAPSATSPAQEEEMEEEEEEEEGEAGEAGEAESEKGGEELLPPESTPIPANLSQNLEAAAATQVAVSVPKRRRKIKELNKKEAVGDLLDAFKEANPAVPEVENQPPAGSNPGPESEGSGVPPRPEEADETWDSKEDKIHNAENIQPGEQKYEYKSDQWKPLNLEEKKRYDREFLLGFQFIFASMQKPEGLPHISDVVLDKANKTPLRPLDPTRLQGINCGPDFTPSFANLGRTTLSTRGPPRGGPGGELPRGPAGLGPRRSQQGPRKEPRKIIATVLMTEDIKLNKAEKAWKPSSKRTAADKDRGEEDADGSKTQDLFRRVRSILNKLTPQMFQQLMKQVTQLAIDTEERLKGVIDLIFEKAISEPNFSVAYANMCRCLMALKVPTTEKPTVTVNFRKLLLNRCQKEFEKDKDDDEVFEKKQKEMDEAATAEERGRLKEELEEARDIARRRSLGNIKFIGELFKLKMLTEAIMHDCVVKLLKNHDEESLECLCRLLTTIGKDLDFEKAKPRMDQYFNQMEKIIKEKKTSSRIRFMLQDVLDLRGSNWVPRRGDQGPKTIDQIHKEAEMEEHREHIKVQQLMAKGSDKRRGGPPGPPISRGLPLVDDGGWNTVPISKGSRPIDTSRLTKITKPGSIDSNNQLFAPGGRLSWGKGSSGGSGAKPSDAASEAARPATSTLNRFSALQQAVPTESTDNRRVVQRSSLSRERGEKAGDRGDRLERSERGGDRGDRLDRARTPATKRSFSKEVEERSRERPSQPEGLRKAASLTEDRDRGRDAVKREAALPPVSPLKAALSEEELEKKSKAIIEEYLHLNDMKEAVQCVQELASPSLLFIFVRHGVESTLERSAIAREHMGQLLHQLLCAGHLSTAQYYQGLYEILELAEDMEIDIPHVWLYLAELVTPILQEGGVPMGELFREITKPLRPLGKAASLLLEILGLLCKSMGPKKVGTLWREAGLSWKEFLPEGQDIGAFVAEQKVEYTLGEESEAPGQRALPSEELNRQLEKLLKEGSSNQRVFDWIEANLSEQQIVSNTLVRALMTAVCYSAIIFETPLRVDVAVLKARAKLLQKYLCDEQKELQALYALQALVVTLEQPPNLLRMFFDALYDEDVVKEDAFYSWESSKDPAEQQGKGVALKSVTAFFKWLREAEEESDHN

The other results are listed elsewhere or left out.

Compound in the experiment: NCC(=O)Nc1ccc(-n2nc(C(F)(F)F)cc2-c2ccc3c(ccc4ccccc43)c2)cc1
The experiment is described as follows: log2 fold change, soluble protein after heating vs DMSO (PISA); higher = thermal stabilisation; K562 cells, 10 uM, 30 min; active = over 0.2 and 3.5 SD of the protein, either way, in both replicates (recomputed). Summed up:
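K562 cells at 2×10^6 cells/mL were treated for 30 min with 10 μM compound, and aliquots were heated for 3 min over 48°C-58°C before pooling. Extraction used PBS with 0.5% NP-40 at 4°C, and soluble protein was the supernatant after 21,000xg for 90 min, measured by TMTpro 16plex LC-MS/MS with channel sums equalised. Thermal stability values, relative to control samples and from duplicates, are log2 fold changes.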
As to ELOVL1 (UniProt Q9BW60), the log2 fold change is inactive: -0.055.
As for EGLN1 (UniProt Q9GZT9), the log2 fold change was inactive: -0.029.
For EIF5 (UniProt P55010), the log2 fold change is inactive: -0.024.
Regarding EIF2B1 (UniProt Q14232), the log2 fold change is inactive: 0.028.
For the target EHBP1L1 (UniProt Q8N3D4), the log2 fold change was inactive: -0.039.
Consider EOGT (UniProt Q5NDL2), for which the log2 fold change was inactive: -0.011.
On to EHD2 (UniProt Q9NZN4), for which the log2 fold change is inactive: -0.096.
For EMC8 (UniProt O43402), the log2 fold change was inactive: 0.033.
On to EIF4H (UniProt Q15056), for which the log2 fold change was inactive: 0.009.
In the case of EIF2S3 (UniProt P41091), the log2 fold change was inactive: 0.025.
Regarding EIF5B (UniProt O60841), the log2 fold change was inactive: -0.03.
As to ELOC (UniProt Q15369), the log2 fold change was inactive: -0.008.
As to EFHD2 (UniProt Q96C19), the log2 fold change is inactive: -0.138.
In the case of EFCAB14 (UniProt O75071), the log2 fold change is inactive: -0.006.
Consider EEF1B2 (UniProt P24534), for which the log2 fold change is inactive: -0.09.
Take EFL1 (UniProt Q7Z2Z2): the log2 fold change was inactive: -0.026.
In the case of EIF1AD (UniProt Q8N9N8), the log2 fold change was inactive: -0.03.
EMD (UniProt P50402): the log2 fold change was inactive: -0.041.
As for ELP1 (UniProt O95163), the log2 fold change was inactive: -0.002.
For ELOVL5 isoform 2 (UniProt Q9NYP7), the log2 fold change was inactive: -0.065.
Consider EEF1AKNMT (UniProt Q8N6R0), for which the log2 fold change was inactive: -0.017.
Regarding EEF1D isoform 2 (UniProt P29692), the log2 fold change was inactive: -0.105.
The result for EEF1G isoform 2 (UniProt P26641) reads inactive: 0.011; that for EIF4E isoform 2 (UniProt P06730), inactive: 0.126.
The figure for EIF3I (UniProt Q13347) is inactive: -0.057; for EED, A0A5F9ZI63 it is inactive: -0.029; for EIF3F (UniProt O00303) it is inactive: -0.049.
In the case of EIF1 (UniProt P41567), the log2 fold change was inactive: -0.006.
With ENDOG (UniProt Q14249), the log2 fold change was inactive: 0.079.
With EIF4G1 isoform 8 (UniProt Q04637), the log2 fold change was inactive: -0.106.
For the target EIF4A1 (UniProt P60842), the log2 fold change is inactive: -0.044.
For EHD4 (UniProt Q9H223), the log2 fold change was inactive: -0.048.
As to EIF3J (UniProt O75822), the log2 fold change is inactive: 0.007.
